Source: PubChem BioAssay AID248 (DTP/NCI, 2004)
The list is a part of this screen's results and no random one: it is rich in T/C values a quarter to a half above the control, in often repeated tests (any T/C) and in doses without a T/C. Other doses and runs of a compound stand elsewhere. T/C: endpoint of the treated group in % of that of the vehicle group. Some doses have a count of surviving animals in place of a T/C: the source holds a T/C of zero for them, seemingly a mark for toxic or unscored doses. Some doses without a T/C left all or most animals alive at the check, yet need not have been tolerated: survival well below the control is almost never listed, so the zero probably covers shortened survival too. Survivors were counted at the toxicity check, usually on the fifth day, unless a day is given; later deaths do not show. Schedules are NCI's codes, read here as Q, the interval in days (D) or hours (H), X, the number of doses. Some schedules carry Z or #; the key to these is not given. Where survival is the endpoint, this PubChem deposit counts one and a half times the control or more as active, and values a quarter to a half above the control carry no call in these data; other NCI protocols may use other cut-offs. Some T/C values carry the count of animals alive at the toxicity check (mostly the fifth day); where none is given, no animal had died by that day.

System: L1210 leukemia ip in BDF1 mice, survival T/C
Assay: NCI In Vivo Anticancer Drug Screen. Data for tumor model L1210 Leukemia (intraperitoneal) in B6D2F1 (BDF1) mice
Settings: T/C endpoint: mean survival time, higher T/C = longer survival
[1] = dose: 200.0 mg/kg/injection, schedule: Q01DX009 (ip), vehicle: saline
[2] = dose: 400.0 mg/kg/injection, schedule: Q04DX003 (ip), vehicle: saline
[3] = dose: 400.0 mg/kg/injection, schedule: Q01DX009 (ip), vehicle: saline with Tween-80
[4] = dose: 400.0 mg/kg/injection, schedule: Q01DX001 (ip), vehicle: carboxymethylcellulose (CMC)
[5] = dose: 100.0 mg/kg/injection, schedule: Q04DX002 (ip), vehicle: Klucel (hydroxypropylcellulose) (HPC)
[6] = dose: 200.0 mg/kg/injection, schedule: Q04DX002 (ip), vehicle: Klucel (hydroxypropylcellulose) (HPC)
[7] = dose: 100.0 mg/kg/injection, schedule: Q01DX009 (ip), vehicle: saline with Tween-80
[8] = dose: 400.0 mg/kg/injection, schedule: Q04DX003 (ip), vehicle: Klucel (hydroxypropylcellulose) (HPC)
[9] = dose: 400.0 mg/kg/injection, schedule: Q01DX009 (ip), vehicle: water
[10] = dose: 80.0 mg/kg/injection, schedule: Q01DX001 (ip), vehicle: saline
[11] = dose: 100.0 mg/kg/injection, schedule: Q01DX009 (ip), vehicle: Klucel (hydroxypropylcellulose) (HPC)
[12] = dose: 200.0 mg/kg/injection, schedule: Q01DX009 (ip), vehicle: Klucel (hydroxypropylcellulose) (HPC)
[13] = dose: 400.0 mg/kg/injection, schedule: Q01DX009 (ip), vehicle: Klucel (hydroxypropylcellulose) (HPC)
[14] = dose: 400.0 mg/kg/injection, schedule: Q04DX002 (ip), vehicle: Klucel (hydroxypropylcellulose) (HPC)
[15] = dose: 400.0 mg/kg/injection, schedule: Q04DX003 (ip), vehicle: saline with Tween-80

SMILES: COc1cccc2c1C(=O)c1c(O)c3c(c(O)c1C2=O)CC(O)(/C(C)=N/NC(=O)c1ccccc1)CC3OC1CC(N)C(O)C(C)O1 (configuration not stated)
- T/C (dose: 50.0 mg/kg/injection, schedule: Q04DX003 (ip), vehicle: water): 129 % of control
- T/C (dose: 100.0 mg/kg/injection, schedule: Q04DX003 (ip), vehicle: water): 131 % of control
- T/C (dose: 300.0 mg/kg/injection, schedule: Q04DX003 (ip), vehicle: water): 134 % of control

SMILES: CCOC(=O)C1=C(C)NC(=O)NN1C(=O)OCC
- survivor count (dose: 100.0 mg/kg/injection, schedule: Q01DX009 (ip), vehicle: saline): 1 of 3
- survivor count [1]: 0 of 3

SMILES: C/C=C\C=N\N(C)C
- survivor count [1]: 0 of 6
- survivor count [2]: 1 of 6

SMILES: COc1cc2ccc(CCNCc3ccccc3)cc2cc1OC
- survivor count (dose: 200.0 mg/kg/injection, schedule: Q04DX003 (ip), vehicle: saline): 1 of 6
- survivor count [2]: 0 of 6

SMILES: COc1ccc(NC(=S)Nc2ccccc2S)cc1
- survivor count [3]: 3 of 3

SMILES: O=C(O)CCCOc1cc(Cl)c(Cl)cc1Cl
- survivor count (dose: 200.0 mg/kg/injection, schedule: Q01DX001 (ip), vehicle: carboxymethylcellulose (CMC)): 4 of 4
- survivor count [4]: 4 of 4

SMILES: O=C(C[n+]1ccc2ccccc2c1)c1cccs1
- T/C [5]: 125 % of control [2 of 3 alive]
- survivor count [6]: 0 of 3

SMILES: NC(=O)c1ccc[n+](CC(=O)NCc2ccccc2)c1
- survivor count [2]: 1 of 6

SMILES: OCC1OC(n2cnc3c2ncn2ccnc32)C(O)C1O (configuration not stated)
- survivor count (dose: 400.0 mg/kg/injection, schedule: Q03HX024 (ip), vehicle: saline): 6 of 6

SMILES: C[n+]1c(/C=C/c2ccc3c(c2)OCO3)ccc2ccccc21
- T/C (dose: 50.0 mg/kg/injection, schedule: Q01DX009 (ip), vehicle: saline with Tween-80): 126 % of control [5 of 6 alive]
- survivor count (dose: 75.0 mg/kg/injection, schedule: Q01DX009 (ip), vehicle: gum acacia): 3 of 6
- survivor count [7]: 0 of 6
- survivor count (dose: 200.0 mg/kg/injection, schedule: Q04DX003 (ip), vehicle: Klucel (hydroxypropylcellulose) (HPC)): 1 of 6
- survivor count [8]: 0 of 6

SMILES: O=C(OCCCl)OCCCl
- survivor count [7]: 5 of 6

SMILES: Nc1ccc2cn[nH]c2c1
- survivor count [9]: 4 of 6

SMILES: CC1CN1c1nc(N2CC2C)nc(N2CC2C)n1 (configuration not stated)
- survivor count (dose: 25.0 mg/kg/injection, schedule: Q01DX009 (ip), vehicle: saline): 0 of 6
- survivor count (dose: 40.0 mg/kg/injection, schedule: Q01DX001 (ip), vehicle: saline): 0 of 4
- survivor count (dose: 50.0 mg/kg/injection, schedule: Q01DX001 (ip), vehicle: saline): 0 of 4
- survivor count [10]: 0 of 4
- survivor count (dose: 100.0 mg/kg/injection, schedule: Q01DX001 (ip), vehicle: saline): 0 of 4
- survivor count (dose: 200.0 mg/kg/injection, schedule: Q01DX001 (ip), vehicle: saline): 0 of 4
- survivor count (dose: 400.0 mg/kg/injection, schedule: Q01DX001 (ip), vehicle: saline): 0 of 4

SMILES: CN1CCN(Cc2c(O)ccc3c4c(c(=O)oc23)CCCC4)CC1
- survivor count [4]: 1 of 4

SMILES: CCOC(=O)Nc1cc2c(c(NC(=O)OCC)n1)N=C(CN(C)c1ccccc1)CN2
- survivor count [7]: 6 of 6
- T/C (dose: 200.0 mg/kg/injection, schedule: Q01DX001 (ip), vehicle: saline with Tween-80): 133 % of control
- T/C (dose: 300.0 mg/kg/injection, schedule: Q01DX001 (ip), vehicle: saline with Tween-80): 146 % of control
- survivor count (dose: 400.0 mg/kg/injection, schedule: Q01DX001 (ip), vehicle: saline with Tween-80): 3 of 6

SMILES: CC1(C)/C(=C\C(=O)O)C2C=CC1C2 (configuration not stated)
- survivor count (dose: 400.0 mg/kg/injection, schedule: Q01DX009 (ip), vehicle: acetone): 2 of 6

SMILES: O=C1CSC(=S)N1/N=C/c1c[nH]c2ccc(Br)cc12
- survivor count (dose: 300.0 mg/kg/injection, schedule: Q01DX001 (ip), vehicle: carboxymethylcellulose (CMC)): 2 of 6

SMILES: CCCN=C(N)c1ccc(NC(=O)c2ccc(C(=O)Nc3ccc(C(N)=NCCC)cc3)c(Cl)c2)cc1
- T/C (dose: 5.0 mg/kg/injection, schedule: Q01DX Z (ip), vehicle: water): 130 % of control
- T/C (dose: 10.0 mg/kg/injection, schedule: Q01DX Z (ip), vehicle: water): 125 % of control
- survivor count (dose: 26.0 mg/kg/injection, schedule: Q01DX Z (ip), vehicle: carboxymethylcellulose (CMC)): 5 of 6
- survivor count (dose: 52.0 mg/kg/injection, schedule: Q01DX Z (ip), vehicle: carboxymethylcellulose (CMC)): 0 of 6

SMILES: Cc1cc(OCC(=O)O)c(Cl)cc1Cl
- survivor count (dose: 200.0 mg/kg/injection, schedule: Q01DX009 (ip), vehicle: saline with Tween-80): 3 of 3

SMILES: O=C(N[C@H](CO)[C@H](O)c1ccc([N+](=O)[O-])cc1)C(Cl)Cl
- survivor count (dose: 1080.0 mg/kg/injection, schedule: Q01DX001 (ip), vehicle: carboxymethylcellulose (CMC)): 3 of 6
- survivor count (dose: 1620.0 mg/kg/injection, schedule: Q01DX001 (ip), vehicle: carboxymethylcellulose (CMC)): 0 of 6

SMILES: CN(C)CCC(CN=C(N)N)c1cccc2ccccc12 (configuration not stated)
- survivor count [11]: 0 of 6
- survivor count (dose: 100.0 mg/kg/injection, schedule: Q04DX002 (ip), vehicle: saline): 1 of 3
- survivor count [12]: 0 of 6
- survivor count [13]: 0 of 6

SMILES: CCN(CC)CCCNc1c2ccccc2nc2ccccc12
- survivor count [10]: 4 of 4

SMILES: CC1CN(Cc2ccc([N+](=O)[O-])cc2)CC(C)N1N=O (configuration not stated)
- survivor count (dose: 25.0 mg/kg/injection, schedule: Q01DX009 (ip), vehicle: water): 1 of 6
- survivor count (dose: 50.0 mg/kg/injection, schedule: Q01DX009 (ip), vehicle: water): 5 of 6
- survivor count (dose: 100.0 mg/kg/injection, schedule: Q01DX009 (ip), vehicle: water): 6 of 6
- survivor count (dose: 200.0 mg/kg/injection, schedule: Q01DX009 (ip), vehicle: water): 6 of 6
- survivor count [9]: 5 of 6

SMILES: CC1(C)CCC(NC(=O)N(CCF)N=O)CC1
- T/C (dose: 20.0 mg/kg/injection, schedule: Q01DX001 (ip), vehicle: other): 141 % of control
- survivor count (dose: 112.0 mg/kg/injection, schedule: Q01DX001 (ip), vehicle: other): 6 of 10
- survivor count (dose: 168.0 mg/kg/injection, schedule: Q01DX001 (ip), vehicle: other): 0 of 10

SMILES: O=C1C=CC(=O)N1C12CC3CC(CC(C3)C1)C2
- survivor count [5]: 0 of 3
- survivor count [6]: 0 of 3
- survivor count [14]: 0 of 3

SMILES: CCOC(=O)NCC(CCN(C)C)(c1cccc2ccccc12)C(C)C (configuration not stated)
- survivor count (dose: 400.0 mg/kg/injection, schedule: Q01DX009 (ip), vehicle: saline): 1 of 6
- survivor count [8]: 2 of 6

SMILES: S=C(Nc1ccccc1)Nc1cccc2ccccc12
- survivor count [14]: 3 of 3

SMILES: Nc1nc(C=O)c(-c2cccc3ccccc23)c(=O)[nH]1
- survivor count [3]: 0 of 6

SMILES: O=C(Nc1cccc(S(=O)(=O)F)c1)Oc1ccc([N+](=O)[O-])cc1
- survivor count [3]: 1 of 3
- survivor count [15]: 1 of 6

SMILES: CCOC(=O)C1SC(N)=NC1=O (configuration not stated)
- survivor count [15]: 1 of 3

SMILES: c1cc2c3c(c1)/C(=N\N=C1/CCN4CCCc5cccc1c54)CCN3CCC2
- survivor count [15]: 6 of 6

SMILES: NOC(=O)c1ccccc1
- survivor count (dose: 400.0 mg/kg/injection, schedule: Q04DX002 (ip), vehicle: saline): 0 of 3

SMILES: CCOC(=O)CNC(=O)Oc1c(Cl)cccc1Cl
- survivor count [11]: 6 of 6
- survivor count [12]: 5 of 6
- survivor count [13]: 0 of 6
